From publication PMC11900815
No constants are given. Whether binding was seen depends on the method and setting. In cells and extracts the contact can be indirect. Some entries that bind do so weakly or less than the wild type. For some assays here: Where a sequence is shown, tags or fusion partners need not be part of it. Each block holds one binder with its values, some of them ahead of it.

Protein sequences, listed by entry. Tags and fused reporters are not part of them.
UniProt Q01196: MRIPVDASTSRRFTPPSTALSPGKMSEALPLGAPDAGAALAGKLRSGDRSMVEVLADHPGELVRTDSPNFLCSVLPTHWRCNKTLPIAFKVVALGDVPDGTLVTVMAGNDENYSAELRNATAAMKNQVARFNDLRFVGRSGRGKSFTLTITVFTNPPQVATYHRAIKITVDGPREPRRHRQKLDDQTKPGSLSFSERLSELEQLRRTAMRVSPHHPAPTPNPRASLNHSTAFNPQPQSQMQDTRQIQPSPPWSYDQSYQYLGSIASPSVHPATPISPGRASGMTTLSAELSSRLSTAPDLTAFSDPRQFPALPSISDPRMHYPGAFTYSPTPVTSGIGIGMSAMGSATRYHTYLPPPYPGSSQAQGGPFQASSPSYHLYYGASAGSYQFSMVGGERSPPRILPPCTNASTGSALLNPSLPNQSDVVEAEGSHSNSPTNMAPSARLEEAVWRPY

Experiments:
[1] = target: T1, Ligand dependent nuclear receptor corepressor (LCOR), endogenous (human (endogenous in A498, CAKI and HEK293T)) (UniProt Q96JN0); assay: co-IP; endogenous proteins in A498, CAKI and HEK293T lysates; primary antibody or IgG overnight at 4°C, protein A/G magnetic beads 4 h, washed with RIPA, western blot
T1 sequence: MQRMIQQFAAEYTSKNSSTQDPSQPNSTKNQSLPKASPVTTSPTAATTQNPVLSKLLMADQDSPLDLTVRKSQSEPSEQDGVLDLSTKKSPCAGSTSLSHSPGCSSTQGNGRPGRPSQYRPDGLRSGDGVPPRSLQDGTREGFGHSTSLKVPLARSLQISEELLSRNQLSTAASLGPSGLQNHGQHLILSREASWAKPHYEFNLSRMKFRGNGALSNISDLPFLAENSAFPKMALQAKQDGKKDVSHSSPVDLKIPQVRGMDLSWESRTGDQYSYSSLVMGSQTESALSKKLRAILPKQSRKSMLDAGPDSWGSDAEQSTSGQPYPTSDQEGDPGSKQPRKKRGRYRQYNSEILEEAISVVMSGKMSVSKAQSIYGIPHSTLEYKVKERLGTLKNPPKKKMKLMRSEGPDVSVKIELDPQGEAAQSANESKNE

[2] = target: T2, Nuclear receptor subfamily 2 group F member 1 (NR2F1), endogenous (human (endogenous in A498, CAKI and HEK293T)) (UniProt P10589); assay: as above
T2 sequence: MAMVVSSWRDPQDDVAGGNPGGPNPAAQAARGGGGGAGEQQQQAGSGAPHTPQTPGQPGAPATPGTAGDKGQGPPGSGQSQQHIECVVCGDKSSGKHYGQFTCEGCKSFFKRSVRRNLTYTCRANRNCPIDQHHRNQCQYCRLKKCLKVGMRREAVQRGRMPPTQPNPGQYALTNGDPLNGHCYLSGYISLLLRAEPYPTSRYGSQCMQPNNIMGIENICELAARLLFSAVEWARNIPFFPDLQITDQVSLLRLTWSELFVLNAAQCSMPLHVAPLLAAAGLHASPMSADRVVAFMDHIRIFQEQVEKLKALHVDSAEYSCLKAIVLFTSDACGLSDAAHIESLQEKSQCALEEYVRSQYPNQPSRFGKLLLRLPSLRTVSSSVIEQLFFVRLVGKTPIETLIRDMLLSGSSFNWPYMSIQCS

[3] = target: RUNX family transcription factor 1 (RUNX1), endogenous (human (endogenous in A498, CAKI and HEK293T)) (UniProt Q01196); assay: as above
HA-RUNX1 = HA-RUNX1 (UniProt Q01196); assay: co-IP; Flag-LCOR co-transfected with HA-RUNX1 or HA-NR2F1 in HEK293T cells; protein A/G magnetic beads, washed with RIPA, western blot
HA-NR2F1 = target: T3, HA-NR2F1 (UniProt P10589); assay: as above
T3 sequence: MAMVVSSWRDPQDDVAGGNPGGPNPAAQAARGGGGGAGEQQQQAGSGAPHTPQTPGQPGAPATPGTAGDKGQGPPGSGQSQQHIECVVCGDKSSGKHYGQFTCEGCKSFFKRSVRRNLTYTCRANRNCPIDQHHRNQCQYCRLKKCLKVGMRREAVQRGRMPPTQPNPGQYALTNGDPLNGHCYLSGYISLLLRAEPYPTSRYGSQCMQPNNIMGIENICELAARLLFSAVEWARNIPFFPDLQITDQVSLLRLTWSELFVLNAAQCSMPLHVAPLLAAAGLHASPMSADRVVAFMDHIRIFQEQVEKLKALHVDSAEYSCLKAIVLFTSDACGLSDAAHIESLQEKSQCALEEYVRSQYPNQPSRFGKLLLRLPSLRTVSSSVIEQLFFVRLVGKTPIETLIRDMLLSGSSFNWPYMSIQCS

binding [1]: binds
B1: Nuclear receptor subfamily 2 group F member 1 (NR2F1), endogenous (protein, UniProt P10589 1-423)
chain: MAMVVSSWRDPQDDVAGGNPGGPNPAAQAARGGGGGAGEQQQQAGSGAPHTPQTPGQPGAPATPGTAGDKGQGPPGSGQSQQHIECVVCGDKSSGKHYGQFTCEGCKSFFKRSVRRNLTYTCRANRNCPIDQHHRNQCQYCRLKKCLKVGMRREAVQRGRMPPTQPNPGQYALTNGDPLNGHCYLSGYISLLLRAEPYPTSRYGSQCMQPNNIMGIENICELAARLLFSAVEWARNIPFFPDLQITDQVSLLRLTWSELFVLNAAQCSMPLHVAPLLAAAGLHASPMSADRVVAFMDHIRIFQEQVEKLKALHVDSAEYSCLKAIVLFTSDACGLSDAAHIESLQEKSQCALEEYVRSQYPNQPSRFGKLLLRLPSLRTVSSSVIEQLFFVRLVGKTPIETLIRDMLLSGSSFNWPYMSIQCS

binding [2]: binds
binding [3]: binds
B2: Ligand dependent nuclear receptor corepressor (LCOR), endogenous (protein, UniProt Q96JN0 1-433)
chain: MQRMIQQFAAEYTSKNSSTQDPSQPNSTKNQSLPKASPVTTSPTAATTQNPVLSKLLMADQDSPLDLTVRKSQSEPSEQDGVLDLSTKKSPCAGSTSLSHSPGCSSTQGNGRPGRPSQYRPDGLRSGDGVPPRSLQDGTREGFGHSTSLKVPLARSLQISEELLSRNQLSTAASLGPSGLQNHGQHLILSREASWAKPHYEFNLSRMKFRGNGALSNISDLPFLAENSAFPKMALQAKQDGKKDVSHSSPVDLKIPQVRGMDLSWESRTGDQYSYSSLVMGSQTESALSKKLRAILPKQSRKSMLDAGPDSWGSDAEQSTSGQPYPTSDQEGDPGSKQPRKKRGRYRQYNSEILEEAISVVMSGKMSVSKAQSIYGIPHSTLEYKVKERLGTLKNPPKKKMKLMRSEGPDVSVKIELDPQGEAAQSANESKNE

binding (HA-RUNX1): binds
binding (HA-NR2F1): binds
B3: Flag-LCOR (protein, UniProt Q96JN0-1 1-433)
chain: MQRMIQQFAAEYTSKNSSTQDPSQPNSTKNQSLPKASPVTTSPTAATTQNPVLSKLLMADQDSPLDLTVRKSQSEPSEQDGVLDLSTKKSPCAGSTSLSHSPGCSSTQGNGRPGRPSQYRPDGLRSGDGVPPRSLQDGTREGFGHSTSLKVPLARSLQISEELLSRNQLSTAASLGPSGLQNHGQHLILSREASWAKPHYEFNLSRMKFRGNGALSNISDLPFLAENSAFPKMALQAKQDGKKDVSHSSPVDLKIPQVRGMDLSWESRTGDQYSYSSLVMGSQTESALSKKLRAILPKQSRKSMLDAGPDSWGSDAEQSTSGQPYPTSDQEGDPGSKQPRKKRGRYRQYNSEILEEAISVVMSGKMSVSKAQSIYGIPHSTLEYKVKERLGTLKNPPKKKMKLMRSEGPDVSVKIELDPQGEAAQSANESKNE
